Values quoted from earlier work as cited in patent publication US20240261242A1, “METHODS OF INTRAVENOUSLY ADMINISTERING SOTALOL” (AltaThera Pharmaceuticals LLC, priority 2018, published 2024).
At least one structure is not confirmed: it was looked up by name or label, or the drawing left a doubt.

Conditions: cited from earlier work

Q: What does the source list for `CC(C)NCC(O)c1ccc(NS(C)(=O)=O)cc1.Cl` (stereo not drawn) [sotalol hydrochloride, d,1-N-[4-[1-hydroxy-2-[(1-methylethyl)amino]ethyl]phenyl] methane-sulfonamide monohydrochloride]?
A: binding to plasma proteins: does not bind to plasma proteins; excretion: predominantly via the kidney in the unchanged form; metabolism: does not undergo metabolism
